No constants are given. Whether binding was seen depends on the method and setting. A result given as binding can be weak or reduced; the word gives no strength.
Target: T1, GST-Sec3N (Sec3 N-terminus, a.a. 1–320) (yeast, UniProt P33332 1-320)
T1 construct: Sec3, yeast exocyst subunit, N-terminus a.a; 1-320; also called pG1860; source: E. coli BL21(DE3), purified (Glutathione Sepharose 4B)
T1 sequence (looked up): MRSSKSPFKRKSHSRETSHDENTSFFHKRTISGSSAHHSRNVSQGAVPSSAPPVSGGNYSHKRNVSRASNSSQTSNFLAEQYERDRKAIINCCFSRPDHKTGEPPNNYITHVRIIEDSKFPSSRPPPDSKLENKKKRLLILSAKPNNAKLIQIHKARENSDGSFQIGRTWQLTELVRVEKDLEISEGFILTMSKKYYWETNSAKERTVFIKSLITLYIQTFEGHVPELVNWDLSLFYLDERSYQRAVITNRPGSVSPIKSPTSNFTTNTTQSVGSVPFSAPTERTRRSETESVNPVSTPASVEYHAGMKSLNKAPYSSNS
Assay: pull-down; GST fusion proteins (12 μg) coupled to glutathione Sepharose 4B; His6-Sso2 2 μM added, 25 °C for 2 h; three washes in PBS; SDS-PAGE, Coomassie blue; both purified

Amino acid sequences for entries named in this document (tags omitted). A change or cut given only in a name is not applied to a line headed by its entry.
UniProt P32867: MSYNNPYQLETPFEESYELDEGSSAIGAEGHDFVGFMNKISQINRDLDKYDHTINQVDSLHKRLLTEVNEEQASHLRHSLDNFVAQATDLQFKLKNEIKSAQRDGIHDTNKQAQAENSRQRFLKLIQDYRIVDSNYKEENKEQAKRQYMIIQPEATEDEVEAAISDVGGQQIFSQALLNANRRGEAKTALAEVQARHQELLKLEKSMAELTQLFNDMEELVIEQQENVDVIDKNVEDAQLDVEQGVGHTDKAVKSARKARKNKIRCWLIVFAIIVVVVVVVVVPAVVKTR

Sso1 (from UniProt P32867)
binding: binds

Reference: PMC5267525, “Sec3 promotes the initial binary t-SNARE complex assembly and membrane fusion” (Nature Communications, 2017)
